Data on two molecules can be found in patent US20230044739A1.

These are yes or no findings as the source states them, for the method shown. Some entries that bind do so weakly or less than the wild type.

The target of assay [1] is T1, recombinantly produced human IL-36R (ECD-extracellular domain) (human) (UniProt Q9HB29).
T1 sequence (looked up): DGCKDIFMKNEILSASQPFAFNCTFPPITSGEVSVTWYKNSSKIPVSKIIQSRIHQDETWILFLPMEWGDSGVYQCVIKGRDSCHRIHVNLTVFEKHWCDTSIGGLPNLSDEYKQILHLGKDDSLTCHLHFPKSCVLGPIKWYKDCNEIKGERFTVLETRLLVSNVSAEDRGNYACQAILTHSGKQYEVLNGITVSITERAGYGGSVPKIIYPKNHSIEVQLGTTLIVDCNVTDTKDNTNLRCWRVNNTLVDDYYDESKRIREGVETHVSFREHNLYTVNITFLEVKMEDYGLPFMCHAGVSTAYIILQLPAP
Nature of the assay: Fortebio Octet; binding also analysed in 50% human serum. (BLI is a label-free optical method that tracks binding on a fibre tip over time.)

Assay [2] deals with T1, recombinantly produced human IL-36R (ECD-extracellular domain) (human). Nature of the assay: hybridoma fusion product screen.

B1: mouse anti-human IL-36R antibody 172C8 (antibody, V domains shown)
VH: EVQLQQSGPELVKPGASVKLSCKASGYTFTDNYMNWVRQSHGKSLEWIGRVNPSNGDTKYNQNFKGKATLTVDKSLSTAYMQLNGLTSEDSAVYYCGRTKNFYSSYSYDDAMDYWGQGTSVTVSS
VL: DIQMTQSPASQSASLGESVTFTCLASQTIGTWLAWYQQRPGKSPQLLIYAATSLADGVPSRFSGSGSGTQFSFNIRSLQAEDFASYYCQQVYTTPLTFGGGTKLEIK
Regarding B1, the binding result in assay [1] and in assay [2] was “binds” throughout.

B2: mouse anti-human IL-36R antibody 67E7 (antibody, V domains shown)
VH: EVQLQQSGAEFVRPGASVKFSCTASGFNIKDDYIHWVRQRPEQGLEWVGRIDPANGNTKYAPKFQDKATITADTSSNTAYLQLSSLTSEDTAVYYCAKSFPNNYYSYDDAFAYWGQGTLVTVSA
VL: DIQMTQSPASQSASLGESVTFTCLASQTIGTWLGWYQQKPGKSPQLLIYRSTTLADGVPSRFSGSGSGTKFSFKISSLQAADFASYYCQQLYSAPYTFGGGTKLEIR
For the molecule B2, the binding entry in assay [1] and in assay [2] was “binds” each time.
